# Measured values published in patent publication US9492499B2, “Peptides having anti-inflammatory properties” (Riptide Bioscience, Inc., priority 2014, dated 2016).
# Part of at least one peptide drawing is inferred or uncertain, most often the ends. Marks after values point to notes of the source that are not given here. No end group written: not given here.
# Test: Tumor growth, MCF-7 non-metastatic breast cancer model in athymic nude mice
# Assay type: in vivo, mouse
# Settings: 100 μM injected into tumor mass two times weekly for 5 weeks
# Protocol: The polypeptides of the invention were also tested for their effect on tumor growth in a mouse model of non-metastatic breast cancer. MCF-7 human non-metastatic breast cancer cells were cultured at 37° C., 5% CO2 in normal growth media. Cells were harvested at 80% to 90% confluence. Immune compromised athymic nude mice (J:NU) were divided into 2 groups (9 animals per group). All mice were injected with ˜4.5×10^6 MCF-7 cells which had been stained with VIVO Tracker 680 and suspended in 200 μl of PBS/Matrigel mixture. Cells were injected subcutaneously on the dorsal surface of treated animals using a 22 gauge needle fitted with a 500 μl syringe.
# Animals were designated vehicle and peptide treated. The peptide treated animals were treated with the RP-397 polypeptide (SEQ ID NO: 194). Freshly prepared RP-397 peptide was dissolved in sterile saline at a concentration of 100 μM and was used to treat the animals in the peptide group. Vehicle treated animals were injected with saline buffer alone. All treatments were injected into the tumor mass two times weekly for 5 weeks using a 27½ gauge needle fitted with a 1 ml syringe. Animal weights and tumor volumes were measured 3 times weekly and the fluorescence labeling was followed by VIVO Tracker 680 and IVIS Imaging.
sequence,measurement,value
"FAKKFAKKF [RP-397, FAKKFAKKF]",Avg. Tumor Weight,0.75 g
same,Rate of Tumor Growth,20* mm^3/day
